In patent publication US12065471B2, “B*44 restricted peptides for use in immunotherapy against cancers and related methods” (Immatics Biotechnologies GmbH, priority 2018, dated 2024):

System: HLA molecules of primary tumor and normal tissue samples
Assay: Identification and quantitation of tumor associated peptides presented on the cell surface (HLA immunoprecipitation, label-free LC-MS)
Parameters: species or system human
Settings: cancer entities on which the peptide was found presented (HLA immunoprecipitation, LC-MS); abbreviations in table footnotes

Substance	Peptide Presentation on cancer entities
1 (KEVDPASNTYTL; listed as Homo sapiens) [compound 1]	NSCLCsquam
4 (AEALGAAKKL; listed as Homo sapiens) [compound 4]	UEC
5 (VEFLLLKY; listed as Homo sapiens) [compound 5]	HCC
8 (ELMEVDPIGHLY; listed as Homo sapiens) [compound 8]	OSCAR
9 (MEVDPIGHLYIF; listed as Homo sapiens) [compound 9]	GBC, HCC, NHL, NSCLCadeno, NSCLCsquam, OC, OSCAR
12 (KEVDPTGHSF; listed as Homo sapiens) [compound 12]	GBC, MEL
15 (MEAELVRRI; listed as Homo sapiens) [compound 15]	MEL
16 (NESDRLVYF; listed as Homo sapiens) [compound 16]	GBC, MEL, NHL
17 (SEIYQPRGF; listed as Homo sapiens) [compound 17]	NHL
18 (QEAPRPASSL; listed as Homo sapiens) [compound 18]	NSCLCsquam
19 (MEHSDENIQFW; listed as Homo sapiens) [compound 19]	NHL
20 (LEALLSDLF; listed as Homo sapiens) [compound 20]	BRCA, CRC, GC, NHL, NSCLCadeno, NSCLCsquam, OSCAR, UBC, UEC
21 (SEAKEIKSQL; listed as Homo sapiens) [compound 21]	BRCA
24 (EELALRIGL; listed as Homo sapiens) [compound 24]	CCC
25 (SEKEPGQQY; listed as Homo sapiens) [compound 25]	HCC
26 (EESSSPVDEY; listed as Homo sapiens) [compound 26]	GBC, RCC
27 (GETCVRITY; listed as Homo sapiens) [compound 27]	MEL
28 (QEFPAHSL; listed as Homo sapiens) [compound 28]	CLL
29 (TENPKKFKI; listed as Homo sapiens) [compound 29]	MEL
34 (AEPPILYSEY; listed as Homo sapiens) [compound 34]	UEC
35 (RELVHMINW; listed as Homo sapiens) [compound 35]	BRCA, UEC

Substance	Peptide Presentation on cancer entities
37 (IEQGRVVLW; listed as Homo sapiens) [compound 37]	GBC, NHL
39 (AEAMGKFKQCF; listed as Homo sapiens) [compound 39]	UEC
40 (REVDPDDSYVF; listed as Homo sapiens) [compound 40]	MEL
43 (SEKIVYVY; listed as Homo sapiens) [compound 43]	HCC
44 (SEFGAPRW; listed as Homo sapiens) [compound 44]	CCC
48 (DEVRALIF; listed as Homo sapiens) [compound 48]	HCC
49 (SEYVHSSF; listed as Homo sapiens) [compound 49]	BRCA
50 (SEYVHSSFSGF; listed as Homo sapiens) [compound 50]	NSCLCadeno
52 (EDNPSGHTY; listed as Homo sapiens) [compound 52]	GBC, NHL
53 (KEDNPSGHTY; listed as Homo sapiens) [compound 53]	NHL
54 (QEISAHRTEF; listed as Homo sapiens) [compound 54]	CLL
55 (TEFHMQFSY; listed as Homo sapiens) [compound 55]	CLL
57 (SEATHIITI; listed as Homo sapiens) [compound 57]	AML, PACA
58 (KEMDPSRQSY; listed as Homo sapiens) [compound 58]	HCC
59 (AEIEADRSYQ; listed as Homo sapiens) [compound 59]	HNSCC
60 (EEAVRSVAF; listed as Homo sapiens) [compound 60]	CLL, NHL
61 (AEYSVHKI; listed as Homo sapiens) [compound 61]	PACA
62 (AEYSVHKITSTF; listed as Homo sapiens) [compound 62]	HNSCC
63 (YEQVLFGF; listed as Homo sapiens) [compound 63]	CLL
64 (EEYQDSFERY; listed as Homo sapiens) [compound 64]	HNSCC, OSCAR
65 (SESMVESKF; listed as Homo sapiens) [compound 65]	MEL, NSCLCadeno

Substance	Peptide Presentation on cancer entities
66 (AEVTLNNTI; listed as Homo sapiens) [compound 66]	NSCLCadeno
68 (NEIDIHSIYF; listed as Homo sapiens) [compound 68]	OSCAR
69 (DENIQKFIW; listed as Homo sapiens) [compound 69]	HNSCC, UBC
70 (AEAEEAMKRL; listed as Homo sapiens) [compound 70]	HNSCC
73 (GEGTLRLSW; listed as Homo sapiens) [compound 73]	MEL
75 (LETSCGSSTAY; listed as Homo sapiens) [compound 75]	NSCLCadeno
76 (RLNEHPSNNW; listed as Homo sapiens) [compound 76]	PACA
77 (QETLAESTW; listed as Homo sapiens) [compound 77]	NHL
78 (TEFSNHINL; listed as Homo sapiens) [compound 78]	BRCA
79 (TEAQRLDCW; listed as Homo sapiens) [compound 79]	MEL
80 (TEQSLYYRQW; listed as Homo sapiens) [compound 80]	MEL
81 (GEKATMQNL; listed as Homo sapiens) [compound 81]	NSCLCsquam, UBC
84 (AETSYVKVLEY; listed as Homo sapiens) [compound 84]	GBC
92 (KEPSQSCIAQY; listed as Homo sapiens) [compound 92]	OSCAR
93 (SEAGLTANQY; listed as Homo sapiens) [compound 93]	NHL
94 (SLAELIAKDW; listed as Homo sapiens) [compound 94]	CCC, HCC, UBC, UEC
95 (AAFEDAQGHIW; listed as Homo sapiens) [compound 95]	PACA
96 (MDELEEGESY; listed as Homo sapiens) [compound 96]	NHL
97 (ELVHMINW; listed as Homo sapiens) [compound 97]	BRCA
99 (SECVKSLSF; listed as Homo sapiens) [compound 99]	BRCA
100 (QGDVVDYSFY; listed as Homo sapiens) [compound 100]	AML

Substance	Peptide Presentation on cancer entities
106 (SVISDSPRSW; listed as Homo sapiens) [compound 106]	OSCAR
107 (YQENPRAAW; listed as Homo sapiens) [compound 107]	MEL, PACA
108 (QETNKVETY; listed as Homo sapiens) [compound 108]	OSCAR
109 (AFSPAAGNTW; listed as Homo sapiens) [compound 109]	CCC
110 (EVEVGEVKSW; listed as Homo sapiens) [compound 110]	HCC
112 (AEIEADRSYQH; listed as Homo sapiens) [compound 112]	HNSCC, OSCAR
113 (MEFKTLNKN; listed as Homo sapiens) [compound 113]	MEL
115 (QEPFTRPVL; listed as Homo sapiens) [compound 115]	NSCLCsquam
121 (YENIPVDKV; listed as Homo sapiens) [compound 121]	MEL
122 (GESVSWHLF; listed as Homo sapiens) [compound 122]	HNSCC
123 (DEINHQSL; listed as Homo sapiens) [compound 123]	NHL
128 (TELTEARVQVW; listed as Homo sapiens) [compound 128]	MEL
129 (EEAMKRLSY; listed as Homo sapiens) [compound 129]	HNSCC, OSCAR
131 (RESHLTEIRQY; listed as Homo sapiens) [compound 131]	BRCA, PRCA
133 (IEAPKLMVV; listed as Homo sapiens) [compound 133]	HNSCC, MEL, NSCLCadeno
134 (IEIKDRLQL; listed as Homo sapiens) [compound 134]	CLL
135 (QEIDRGQYI; listed as Homo sapiens) [compound 135]	MEL
136 (EEMPEEIHL; listed as Homo sapiens) [compound 136]	HNSCC, OSCAR
137 (EKGLISAF; listed as Homo sapiens) [compound 137]	SCLC
